# Reference: the supplement of paper PMC3334620
# The full ranking holds about 33,000 sequences; the median of “E-score (-0.5 to 0.5)” is about -8e-05, and the highest 2% start at about 0.23. This is one part of the list.
# Target: T1, Nrg2 (UniProt P38082)
# T1 sequence: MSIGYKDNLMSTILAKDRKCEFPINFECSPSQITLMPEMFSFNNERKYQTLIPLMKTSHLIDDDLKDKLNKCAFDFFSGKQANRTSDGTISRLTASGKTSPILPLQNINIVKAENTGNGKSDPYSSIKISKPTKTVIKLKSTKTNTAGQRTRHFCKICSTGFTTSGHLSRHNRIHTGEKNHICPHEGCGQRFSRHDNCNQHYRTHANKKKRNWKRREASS
# Assay: PBM E-score (8-mer binding enrichment) (E-score (-0.5 to 0.5)); higher = stronger / more preferred TF binding
# Details: protein concentration: 100 nM; construct: GST-full length
# Method in brief: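 Full-length yeast transcription factors or their DNA-binding domains, GST-tagged and expressed with PURExpress, were applied at about 100-200 nM to universal all-10-mer Agilent arrays. These arrays had been made double-stranded by primer extension on fresh or once-stripped slides. Detection used fluorescent anti-GST, normalisation used masliner, and E-scores for ungapped eight-base words pooled with reverse complements came from the Universal PBM Analysis Suite.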
row,Sequence,PBM E-score
1,CGCCCTAC,-0.18
2,ACTAATTG,0.139
3,ATATGAGA,0.152
4,CCCATTAG,-0.196
5,GAGAGTGC,-0.178
6,ACGTCGAG,0.0245
7,GAACGTGC,-0.0418
8,CGTGCAAA,0.0253
9,CCAGATCC,-0.0551
10,GGCAAACA,0.0794
11,CGACTGCA,0.0284
12,AACCGACT,-0.0613
13,AACAAACC,0.0713
14,AGTGACTA,-0.133
15,ACAGATGC,-0.126
16,ACCTATAG,-0.0692
17,CTCAAGAC,0.0293
18,GCAAAAAC,0.0518
19,AGGCCATG,-0.0657
20,CCTCATAC,-0.146
21,TCAGTAAA,0.0352
22,CTCACCCC,-0.102
23,CGTCCCAA,-0.0267
24,CGCCGCGA,0.0854
25,GTTAACTA,0.273

row,Sequence,PBM E-score
1,CATCTCCC,-0.0152
2,ATGAAAAT,0.15
3,TAAGAGGA,-0.0476
4,ATGGCCAC,-0.109
5,AAAATTAC,-0.0107
6,CAGTTCAG,-0.00064
7,AAGGCGAG,-0.137
8,GTTGAAAA,-0.00304
9,CCGTCTAA,-0.0402
10,CTGTAAGA,0.00541
11,GCGCACAC,0.046
12,CGCAACGC,-0.0196
13,ACAGTTTA,-0.0808
14,GGGGATAC,-0.0501
15,GAGCACCC,-0.0404
16,CAAGTCAC,-0.0137
17,CAGATTTC,-0.0458
18,CGGATTAC,-0.174
19,CACGCCTA,-0.227
20,CCTAGAGC,-0.0927
21,CGTTGGAG,-0.17
22,GTTTCACA,0.0563
23,GGCTTTCA,0.0502
24,GACTGCCA,0.0694
25,GCCGCCCA,-0.0819

row,Sequence,PBM E-score
1,ACGTGCCC,-0.0325
2,AATGAAGG,0.0439
3,AGTCAAAG,-0.0751
4,ACGCACAA,0.0432
5,CCTCGATA,0.138
6,AACAAACG,0.0693
7,GCTTCCTA,-0.057
8,AGTCTGGA,0.0798
9,GCGGTCCC,0.035
10,TCTCTACA,0.0699
11,ATGAAAGC,0.141
12,AGGCACGA,-0.0256
13,CAGAGAAC,-0.135
14,TTAGGGAA,0.00013
15,ATAACGTC,0.0307
16,GCGCTTCC,-0.0589
17,GCTTGAAA,-0.0563
18,TCGCTTCA,-0.0525
19,GCCCCAAA,-0.0545
20,GGCAGACA,-0.0288
21,CTTTGTCA,0.102
22,ACCGCAAG,0.00329
23,AGGAATGG,-0.0567
24,GATCATAC,-0.00914
25,AGACTTCC,-0.11

# Quoted from the listing.
# GCCCCAAA | PBM E-score: -0.0545
# GCTTCCTA | PBM E-score: -0.057
# GATCATAC | PBM E-score: -0.00914

# Additional entries.

row,Sequence,PBM E-score
1,CGACCTAG,0.163
2,AATACACC,0.201
3,CGACTGGC,-0.0371
4,ATACAAGC,0.212
5,CAGGGTGG,0.0924
6,CTGTTGAC,-0.108
7,ACATGTGA,-0.0666
8,ACTTTATA,0.0257
9,ACGTCCTC,-0.0759
10,AGATACGC,0.0646
11,CAAAATAA,0.0401
12,ATTCTACC,-0.0983
13,GATGACCA,-0.113
14,ATCTGAGA,-0.0784
15,CACATATC,0.091
16,ATTGACTC,0.0465
17,ATGTTCGA,0.0777
18,GTCAGGGA,0.18
19,TACGGATA,0.0194
20,GCTCGGTA,-0.201
21,AGCATAAC,-0.00035
22,GATTGCAC,0.122
23,CGAATTGA,0.0563
24,AAGGAACT,-0.105
25,ACATATAG,-0.0221

row,Sequence,PBM E-score
1,TGTGAAAA,-0.0846
2,CTCCACCC,-0.134
3,GATAGATA,-0.06
4,GATCAGGA,0.0728
5,ACAGGACT,-0.104
6,AAGATGGT,0.0332
7,ACGTAAAG,-0.0672
8,CCTCTGCG,-0.241
9,AGTATTGA,0.125
10,AAACGACA,0.203
11,ACGCGTCG,0.161
12,CGATTTTC,0.0455
13,CGCGTGTA,-0.0243
14,TCTGTACA,0.0867
15,CCTAGTCC,-0.205
16,AGATCTGA,-0.0084
17,CTCAGCCC,-0.271
18,AAGGCGGG,-0.208
19,GTCGCTCA,-0.0243
20,TCCATCCA,-0.0903
21,ACGATGTG,0.0997
22,TCCTTCAA,-0.102
23,CATTCTCC,-0.125
24,AGCTACGA,0.0935
25,GACTAGTA,-0.0245

row,Sequence,PBM E-score
1,ACCCCCCG,-0.322
2,ACTATTTC,0.193
3,CGAAGGAC,-0.205
4,ACAAGCTC,-0.039
5,CACTGTCG,-0.177
6,GGCCAGCC,-0.0474
7,GGACTGAC,-0.0649
8,ATCTCCAT,0.0415
9,AATTTGAG,-0.0565
10,AATCAGAA,0.149
11,TTTGAAAA,0.119
12,ATTTATTA,0.273
13,TGGACAAA,0.0708
14,CCACTGAC,-0.142
15,GATATCAC,0.124
16,CGTTGCAC,-0.0794
17,ACAGTTCG,0.103
18,AATTCGAC,-0.232
19,CGCACCGA,-0.0482
20,CCGTTTCG,-0.0514
21,AGAGCGTA,-0.0186
22,CTTGTGCA,0.227
23,ACCCTACC,0.154
24,TACGATGA,-0.0904
25,CTCTGGGC,-0.113

# An excerpt of these results, bar-delimited.
row | Sequence | PBM E-score
22 | CTCACCCC | -0.102
23 | CGTCCCAA | -0.0267
24 | CGCCGCGA | 0.0854

# Later entries.

row,Sequence,PBM E-score
1,GCCTTAAC,-0.0167
2,CCTGTAGC,-0.259
3,AGGGGTAA,0.0864
4,AACCGGGG,-0.0683
5,AACACCGG,-0.0363
6,CGAGGCGC,0.038
7,GACGCGCA,0.055
8,AATGACGC,0.0754
9,CGAACCGC,0.182
10,TATCATAA,0.145
11,CGACGCGC,0.0799
12,ATCGAGAG,0.0784
13,AGTGAGCA,-0.196
14,AAGCACGT,0.0258
15,CGGTCATA,0.00512
16,ATTTGGAC,0.128
17,GCTACTAC,0.18
18,TAGCAAGA,-0.034
19,GCAATCAA,0.139
20,ATTACCCC,0.0377
21,CCGCGACA,0.139
22,CTAAATAA,-0.0346
